Test results from PMC10643408.
These are yes or no findings as the source states them, for the method shown.

Sequences of proteins named here, by UniProt entry; tags and fusion partners are left off. Residues count along the entry.
UniProt Q9UKV8, residues 229-348: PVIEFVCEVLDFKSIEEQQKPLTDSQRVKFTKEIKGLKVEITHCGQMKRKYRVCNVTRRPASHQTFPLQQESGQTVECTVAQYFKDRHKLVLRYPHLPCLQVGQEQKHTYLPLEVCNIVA
UniProt Q96AZ6: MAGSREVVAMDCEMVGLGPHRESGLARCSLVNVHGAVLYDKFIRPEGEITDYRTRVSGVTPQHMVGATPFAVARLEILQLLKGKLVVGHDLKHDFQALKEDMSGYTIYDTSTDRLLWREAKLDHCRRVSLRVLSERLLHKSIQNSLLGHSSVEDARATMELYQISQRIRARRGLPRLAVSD

Molecular target: isolated PAZ domain of human AGO2 (human) (UniProt Q9UKV8)
Assay: SEC; Superdex 75 increase 10/300 GL; running buffer 150 mM NaCl, 20 mM Tris-HCl pH 7.5, 2 mM DTT; AGO2 PAZ domain, ISG20 or a mixture of both injected; mixture incubated on ice for 60 min before injection; both purified

interferon-stimulated gene 20 kDa (ISG20) (from UniProt Q96AZ6 1-181) (enzyme)
binding: no binding (tested: 100 μmol injected (so in the source))
